Publication PMC11149415
No constants are given. Whether binding was seen depends on the method and setting. Binding seen in cells or lysates may run through a third protein. A result given as binding can be weak or reduced; the word gives no strength.

Amino acid sequences for entries named in this document (tags omitted). A change or cut given only in a name is not applied to a line headed by its entry.
UniProt Q9NPH3: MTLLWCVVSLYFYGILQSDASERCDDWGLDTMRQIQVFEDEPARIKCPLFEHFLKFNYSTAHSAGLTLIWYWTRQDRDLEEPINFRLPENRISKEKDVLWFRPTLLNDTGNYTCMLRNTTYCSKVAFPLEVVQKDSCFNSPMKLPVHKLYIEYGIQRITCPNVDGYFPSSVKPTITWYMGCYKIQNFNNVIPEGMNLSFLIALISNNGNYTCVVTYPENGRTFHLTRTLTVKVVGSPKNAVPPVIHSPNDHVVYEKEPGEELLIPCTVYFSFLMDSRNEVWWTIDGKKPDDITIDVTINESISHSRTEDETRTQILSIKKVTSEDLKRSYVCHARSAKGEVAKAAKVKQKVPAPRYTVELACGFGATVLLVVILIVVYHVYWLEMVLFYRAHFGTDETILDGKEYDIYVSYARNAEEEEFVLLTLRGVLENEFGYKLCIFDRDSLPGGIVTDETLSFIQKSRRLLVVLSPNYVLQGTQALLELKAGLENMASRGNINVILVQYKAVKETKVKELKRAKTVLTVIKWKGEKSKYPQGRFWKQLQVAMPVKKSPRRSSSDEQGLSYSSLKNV
UniProt P14778: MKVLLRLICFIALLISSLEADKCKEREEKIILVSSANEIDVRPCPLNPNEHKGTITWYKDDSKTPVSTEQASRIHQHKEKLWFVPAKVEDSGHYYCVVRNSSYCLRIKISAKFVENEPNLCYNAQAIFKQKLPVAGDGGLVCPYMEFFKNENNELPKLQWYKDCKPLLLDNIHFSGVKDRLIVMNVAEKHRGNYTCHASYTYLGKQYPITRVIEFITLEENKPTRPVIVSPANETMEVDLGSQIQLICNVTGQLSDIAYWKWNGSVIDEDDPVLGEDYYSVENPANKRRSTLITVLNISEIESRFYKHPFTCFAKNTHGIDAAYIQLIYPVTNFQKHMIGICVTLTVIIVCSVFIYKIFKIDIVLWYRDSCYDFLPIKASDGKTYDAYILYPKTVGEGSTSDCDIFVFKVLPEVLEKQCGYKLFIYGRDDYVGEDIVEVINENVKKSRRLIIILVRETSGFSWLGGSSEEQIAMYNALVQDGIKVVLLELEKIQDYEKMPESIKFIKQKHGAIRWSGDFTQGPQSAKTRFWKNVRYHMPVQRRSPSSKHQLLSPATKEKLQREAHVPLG

Tests used:
Test in all cases: co-IP; HEK293T cells transfected with the indicated plasmids; NP40 lysis buffer (20 mM Tris–HCl pH 7.4, 150 mM NaCl, 1 mM EDTA, 1% NP40); indicated antibody and protein G magnetic beads, 4 °C, 4 h or overnight; washed with lysis buffer with 500 mM NaCl; western blotting; in some panels with or without overexpressed ANGPTL3
[1] = target: IL1RAP C-terminal region (truncation mutant) (human) (UniProt Q9NPH3)
[2] = target: IL1RAP N-terminal region (truncation mutant) (human) (UniProt Q9NPH3)
[3] = target: IL1R1 C-terminal region (truncation mutant) (human) (UniProt P14778)

binding [1]: binds | binding [2]: binds | binding [3]: binds
B1: Angiopoietin like 3 (ANGPTL3), full-length, overexpressed (protein, UniProt Q9Y5C1 17-460)
chain: SRIDQDNSSFDSLSPEPKSRFAMLDDVKILANGLLQLGHGLKDFVHKTKGQINDIFQKLNIFDQSFYDLSLQTSEIKEEEKELRRTTYKLQVKNEEVKNMSLELNSKLESLLEEKILLQQKVKYLEEQLTNLIQNQPETPEHPEVTSLKTFVEKQDNSIKDLLQTVEDQYKQLNQQHSQIKEIENQLRRTSIQEPTEISLSSKPRAPRTTPFLQLNEIRNVKHDGIPAECTTIYNRGEHTSGMYAIRPSNSQVFHVYCDVISGSPWTLIQHRIDGSQNFNETWENYKYGFGRLDGEFWLGLEKIYSIVKQSNYVLRIELEDWKDNKHYIEYSFYLGNHETNYTLHLVAITGNVPNAIPENKDLVFSTWDHKAKGHFNCPEGYSGGWWWHDECGENNLNGKYNKPRAKSKPERRRGLSWKSQNGRLYSIKSTKMLIHPTDSESFE
